Source: publication PMC4264182
These are yes or no findings as the source states them, for the method shown. Some results given as binding are weak or reduced against the parent protein; the word gives no strength.

Protein sequences, listed by entry. Tags and fused reporters are not part of them. Residues count along the entry.
UniProt P01241, residues 27-217: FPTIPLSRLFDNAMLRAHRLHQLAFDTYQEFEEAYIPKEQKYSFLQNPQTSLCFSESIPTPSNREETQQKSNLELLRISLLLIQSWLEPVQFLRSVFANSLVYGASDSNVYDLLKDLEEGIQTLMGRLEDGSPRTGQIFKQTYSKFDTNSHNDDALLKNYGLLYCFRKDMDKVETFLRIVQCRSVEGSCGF

Biological target: T1, Mouse growth hormone receptor (mGHR) expressed on 3T3-F442A cells (mouse (endogenous in 3T3-F442A)) (UniProt P16882)
T1 sequence: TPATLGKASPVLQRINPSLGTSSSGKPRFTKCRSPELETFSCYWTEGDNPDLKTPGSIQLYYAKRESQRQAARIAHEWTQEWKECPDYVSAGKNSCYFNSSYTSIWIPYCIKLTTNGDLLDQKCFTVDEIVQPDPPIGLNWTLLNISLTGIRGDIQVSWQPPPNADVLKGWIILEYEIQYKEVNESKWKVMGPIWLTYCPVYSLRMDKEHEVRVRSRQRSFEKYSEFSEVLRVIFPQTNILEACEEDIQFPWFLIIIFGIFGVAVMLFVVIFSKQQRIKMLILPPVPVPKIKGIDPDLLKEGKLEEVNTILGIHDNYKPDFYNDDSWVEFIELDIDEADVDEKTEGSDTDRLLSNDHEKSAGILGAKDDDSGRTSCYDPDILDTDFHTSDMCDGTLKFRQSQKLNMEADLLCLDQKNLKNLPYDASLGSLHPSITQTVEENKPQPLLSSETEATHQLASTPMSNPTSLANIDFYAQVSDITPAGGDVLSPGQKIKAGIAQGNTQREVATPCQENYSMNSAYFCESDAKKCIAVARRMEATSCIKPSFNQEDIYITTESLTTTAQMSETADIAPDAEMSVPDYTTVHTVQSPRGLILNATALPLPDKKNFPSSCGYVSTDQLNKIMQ
Test: flow cytometry on cells; competitive receptor binding on 3T3-F442A cells (1 x 10^6 cells/tube) in serum-free medium with 1 mg/mL BSA; FITC-GH (15 nM) with increasing concentrations of unlabeled GH, Mab263 or control antibody, 1 h in the dark at 4 °C; only the binder purified

| binding | Substance |
| --- | --- |
| binds | Human growth hormone (hGH), unlabeled (from UniProt P01241 27-217) (ligand) |
| binds | Human growth hormone conjugated with fluorescein isothiocyanate (FITC-hGH) (from UniProt P01241 27-217) (ligand) |
